This assay concerns the target T1, FLAG-AP-1-2-beta (β-adaptin) (Drosophila melanogaster) (UniProt Q24253).
T1 sequence: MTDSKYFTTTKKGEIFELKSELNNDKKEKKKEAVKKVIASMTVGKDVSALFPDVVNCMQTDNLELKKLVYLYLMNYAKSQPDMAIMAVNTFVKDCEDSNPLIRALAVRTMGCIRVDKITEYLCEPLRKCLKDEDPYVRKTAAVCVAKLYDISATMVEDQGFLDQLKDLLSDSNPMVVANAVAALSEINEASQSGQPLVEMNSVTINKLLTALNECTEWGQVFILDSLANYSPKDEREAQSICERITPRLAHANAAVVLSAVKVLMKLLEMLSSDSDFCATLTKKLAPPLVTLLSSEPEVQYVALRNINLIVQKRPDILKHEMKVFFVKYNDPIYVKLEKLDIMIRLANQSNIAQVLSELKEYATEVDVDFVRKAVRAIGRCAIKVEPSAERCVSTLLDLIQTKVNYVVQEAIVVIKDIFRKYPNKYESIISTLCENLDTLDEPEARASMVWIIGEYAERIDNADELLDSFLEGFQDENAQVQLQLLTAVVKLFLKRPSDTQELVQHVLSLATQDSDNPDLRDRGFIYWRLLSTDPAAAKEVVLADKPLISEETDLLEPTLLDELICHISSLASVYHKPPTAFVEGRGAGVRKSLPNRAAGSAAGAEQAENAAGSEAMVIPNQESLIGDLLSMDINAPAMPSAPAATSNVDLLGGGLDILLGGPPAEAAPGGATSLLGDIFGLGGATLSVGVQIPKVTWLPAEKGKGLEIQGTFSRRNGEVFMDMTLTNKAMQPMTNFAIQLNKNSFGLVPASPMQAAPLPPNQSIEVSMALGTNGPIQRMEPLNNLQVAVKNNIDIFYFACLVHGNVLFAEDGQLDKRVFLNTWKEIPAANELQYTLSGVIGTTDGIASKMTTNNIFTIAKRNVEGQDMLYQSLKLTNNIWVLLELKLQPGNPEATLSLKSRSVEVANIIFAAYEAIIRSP
The assay is described as follows: co-IP; S2* cells cotransfected with pAGW-Bub1 and pAFW-AP-1-2-beta, 72 h, then with or without DCV (MOI 100, 1 h, 28°C); anti-FLAG immunoprecipitation, anti-GFP blot; also after the Bub1 kinase inhibitor 2OH-BNPP1 (Fig. S6B).

No constants are given. Whether binding was seen depends on the method and setting. Binding seen in cells or lysates may run through a third protein. A result given as binding can be weak or reduced; the word gives no strength. Tags and fused reporters may be left off the sequences shown.

“GFP-Bub1 fusion protein (Drosophila budding uninhibited by benzimidazoles 1) (from UniProt Q7K0Y3)”: the binding entry is given as “binds”.
